# PubChem BioAssay AID493246, Drosophila RNAi Screening Center – 2011
# Test: 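Genes fly cells need to grow and stay alive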 (primary screen)
# Cells: Drosophila Kc and S2R+ cells
# Reagent: long dsRNA against Drosophila genes
# Read-out: 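Raw, unnormalised count of remaining cells in each well; per-plate z-scores of cell number underlie the calls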
# Direction: Kc cell number and S2R+ cell number: higher = more cells remaining
# Active means: 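Counted as a hit if cell number falls by a z-score of at least 3 within its plate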
# The screen tested about 21,000 reagents; below is a random part of those with a known target gene and a result. Over the whole deposit, 429 (2%) got an active call. 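Values are raw and not normalised between plates; calls rest on per-plate z-scores that were not deposited.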 A plus sign joins genes that one reagent is predicted to hit. No sequences are given here. Not given: the amount of reagent, the time to read-out.
gene,amplicon,"Kc cell number, rep 1","Kc cell number, rep 2","S2R+ cell number, rep 1","S2R+ cell number, rep 2",outcome
Patr-1,DRSC14159,1.35e6,1.44e6,1.01e6,1.07e6,inactive
CG15909,DRSC04977,1.65e6,1.73e6,1.31e6,1.36e6,inactive
Oatp30B,DRSC02727,1.40e6,1.42e6,1.05e6,1.12e6,inactive
CG33937 (retired record),DRSC15148,1.84e6,1.88e6,1.33e6,1.51e6,inactive
CG4066,DRSC15541,1.68e6,1.76e6,1.35e6,1.48e6,inactive
CG30394,DRSC04074,1.52e6,1.62e6,1.29e6,3.08e5,inactive
CG30394,DRSC04260,1.54e6,1.61e6,1.32e6,2.94e5,inactive
Cyp6a18,DRSC16632,1.70e6,1.82e6,1.10e6,1.22e6,inactive
TAF1C-like,DRSC04073,1.44e6,1.51e6,1.26e6,1.32e6,inactive
CG9411,DRSC20184,5.73e5,,7.77e5,,inactive
Trxr1,DRSC18668,5.96e5,,9.00e5,,inactive
CG31759,DRSC01230,1.55e6,1.58e6,1.07e6,1.27e6,inactive
Jon99Cii,DRSC16858,1.47e6,1.52e6,1.07e6,1.14e6,inactive
alpha-Man-IIa,DRSC15393,1.54e6,1.52e6,1.29e6,1.41e6,inactive
CG9135,DRSC03144,1.21e6,1.26e6,5.93e5,8.67e5,inactive
yip2,DRSC03640,1.63e6,1.60e6,1.28e6,1.45e6,inactive
Nna1,DRSC19404,6.09e5,,8.66e5,,inactive
CG8066,DRSC16374,1.36e6,1.49e6,1.09e6,1.23e6,inactive
mRpL42,DRSC06235,1.37e6,1.45e6,1.06e6,1.09e6,inactive
Mal-A3,DRSC07462,1.47e6,1.55e6,1.28e6,1.42e6,inactive
asRNA:CR33945,DRSC14080,1.34e6,1.67e6,1.10e6,1.19e6,inactive
AsnRS-m,DRSC07010,1.49e6,1.48e6,1.14e6,1.29e6,inactive
CG10864,DRSC14273,1.18e6,1.14e6,1.08e6,1.16e6,inactive
CG17929,DRSC15291,1.30e6,1.47e6,1.11e6,1.17e6,inactive
Rlb1,DRSC16826,1.50e6,1.44e6,1.24e6,1.30e6,inactive
CG31855,DRSC02968,1.37e6,1.52e6,1.04e6,1.23e6,inactive
CHMP2B,DRSC10436,1.42e6,1.52e6,1.29e6,1.08e6,inactive
Ddc,DRSC03314,1.54e6,1.59e6,1.21e6,3.65e5,inactive
TTLL4A,DRSC02528,1.31e6,1.52e6,1.32e6,1.21e6,inactive
Vrp1,DRSC04148,1.36e6,1.48e6,1.02e6,9.80e5,inactive
CG4045,DRSC18518,5.51e5,,8.06e5,,inactive
CG8219,DRSC10971,1.39e6,1.39e6,1.13e6,1.16e6,inactive
Bsg,DRSC01010,1.37e6,1.39e6,8.75e5,1.01e6,inactive
Bsg,DRSC01011,1.59e6,1.67e6,9.49e5,1.06e6,inactive
Fuca,DRSC10591,1.48e6,1.71e6,1.33e6,1.36e6,inactive
tkv + CR14033 + tRNA:Asp-GTC-2-1 + 1 more,DRSC00861,1.35e6,1.32e6,9.60e5,1.13e6,inactive
CG17646,DRSC00507,1.36e6,1.36e6,1.12e6,1.25e6,inactive
SMC1,DRSC16846,1.47e6,1.46e6,9.34e5,1.05e6,inactive
CG5916,DRSC15917,1.54e6,1.54e6,1.23e6,1.23e6,inactive
CG18787 + CG18789,DRSC02698,1.54e6,1.65e6,1.19e6,1.41e6,inactive
